Source: PubChem BioAssay AID2685 (National Center for Advancing Translational Sciences (NCATS), 2010)
This is one part of the list. Further columns of the screen follow, without active or inactive calls. The list favours compounds with an active or inconclusive main result. The note in brackets gives the kind of curve behind each potency; many fits are weak.

Experiment: qHTS Assay for Lipid Storage Modulators in Drosophila S3 Cells;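 for cell number change: cells counted by Cell Tracker Red CMTPX staining in the red channel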
Settings: BODIPY lipid droplet fluorescence, 18-24 h; for cell number change: measured here: cell count max response, cells fed with added oleic acid
How it was run: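 Drosophila S3 cells got compounds at several concentrations plus oleic acid (400 uM solution). Laser-scanning cytometry with 488 nm excitation read lipid droplets at 500-530 nm and cells at 575-640 nm. Percent activity was relative to 20 uM Triacsin C.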

[1] = measured here: cell number channel AC50, cells fed with added oleic acid
[2] = measured here: lipid fluorescence (Fed channel) AC50, cells fed with added oleic acid

SMILES | cell number change | AC50 [1] | AC50 [2]
Nc1c(N(CCC2=CCCCC2)C(=O)c2ccc([N+](=O)[O-])o2)c(=O)[nH]c(=O)n1Cc1ccccc1 | -32.5% | 32.6 µM [falling, single point] | 29.1 µM [falling, single point]
O=C(NC1CCCC1)c1ccc(CSCc2ccccc2F)o1 | 110% | 2.31 µM [rising, full curve] | 1.84 µM [rising, partial curve]
CCCCCCN1C=CC=C/C1=C/C=C(C#N)C#N | -65.4% | 29.1 µM [falling, single point] | 20.6 µM [falling, partial curve]
Cc1ccccc1NS(=O)(=O)c1cc(C(=O)N2CCCC2)ccc1Cl |  |  | 0.103 µM [falling, full curve, poor fit]
Cn1c(SCc2nc3ccccc3n2CCO)nc2ccccc21 | -24.2% |  | 13 µM [falling, partial curve, poor fit]
Cc1nn(-c2ccccc2)c2sc(C(=O)NNC(=O)COc3cccc4ccccc34)cc12 | -23.3% |  | 0.411 µM [falling, single point]
Cc1c(NC(=O)COc2ccc3ccc(=O)oc3c2)c(=O)n(-c2ccccc2)n1C | 2.81% |  | 
CCOc1ccccc1NC(=O)c1nc(S(=O)(=O)Cc2cccc(C)c2)ncc1Cl | -9.63% | 2.06 µM [falling, partial curve] | 
CCN1CCN(c2ccc(S(=O)(=O)N3CCCCC3)cc2NC(=O)COc2ccc(Cl)cc2)CC1 | 20.9% |  | 
C/C(=N\NC(=S)NCc1ccccc1)c1ccc2ccccc2c1 | 14.3% |  | 7.31 µM [rising, partial curve]
Cn1c(SCC(=O)N2CCCCC2)nc2cccnc21 | -10.7% |  | 8.2 µM [rising, partial curve]
CCOC(=O)C1(Cc2ccccc2Cl)CCN(Cc2csc(C(C)=O)c2)CC1 | 14.9% |  | 3.26 µM [rising, partial curve]
CC(C)CNS(=O)(=O)c1ccc(CCC(=O)N2CCOCC2)cc1 | 15.3% |  | 29.1 µM [falling, single point]
COc1ccc(CC(=O)NCC2CCCN(Cc3cccc(SC)c3)C2)cc1 (stereo not given) | 12.5% |  | 20.6 µM [rising, partial curve]
CN(C(=O)COc1cccc(Br)c1)C1CCS(=O)(=O)C1 (stereo not given) | -3.49% |  | 
Cc1ccc(NC(=O)CSc2nc3ccccc3c(=O)n2CCCC(=O)N2CCCC2)cc1 | 14.1% |  | 1.84 µM [rising, partial curve, poor fit]
CN(C)CCNC(=O)/C(=C/c1ccc(-c2ccc(Cl)cc2)o1)NC(=O)c1ccccc1 | -23.3% |  | 0.00517 µM [falling, full curve, poor fit]
CNS(=O)(=O)c1ccc(NC(=O)C2c3ccccc3Oc3ccccc32)cc1 | 0.884% |  | 
CCOc1ccccc1N1CCN(C(=O)Nc2ccc(F)c(Cl)c2)CC1 | 23.2% |  | 2.31 µM [falling, partial curve]
CCCN(CC(=O)Nc1ccccc1C)C(=O)c1nn(CC)c(=O)c2ccccc12 | 32.6% | 18.4 µM [rising, single point] | 20.6 µM [rising, partial curve]

An excerpt of these results, with tabs.
SMILES	cell number change	AC50 [1]	AC50 [2]
CN(C(=O)COc1cccc(Br)c1)C1CCS(=O)(=O)C1 (stereo not given)	-3.49%		
Cc1ccc(NC(=O)CSc2nc3ccccc3c(=O)n2CCCC(=O)N2CCCC2)cc1	14.1%		1.84 µM [rising, partial curve, poor fit]
CN(C)CCNC(=O)/C(=C/c1ccc(-c2ccc(Cl)cc2)o1)NC(=O)c1ccccc1	-23.3%		0.00517 µM [falling, full curve, poor fit]
CNS(=O)(=O)c1ccc(NC(=O)C2c3ccccc3Oc3ccccc32)cc1	0.884%		
CCOc1ccccc1N1CCN(C(=O)Nc2ccc(F)c(Cl)c2)CC1	23.2%		2.31 µM [falling, partial curve]

(listing goes on)

SMILES | cell number change | AC50 [1] | AC50 [2]
Cc1ccc(NC(=O)C2C3C=CC4(O3)C2C(=O)N(CCCN2CCCC(C)C2)C4C(=O)NC2CCCCC2)cc1 (stereo not given) | 12.6% |  | 29.1 µM [falling, single point]
Cc1cc(NC(=O)OC2CCCCC2)ccc1[N+](=O)[O-] | 2.52% |  | 0.206 µM [rising, single point]
O=C(O)CCCNC(=O)CCCn1nnc2ccccc2c1=O | -9.29% |  | 29.1 µM [falling, single point]
N#C/C(=N\O)c1nc2ccccc2[nH]1 | 20.5% |  | 18.4 µM [rising, single point]
O=C(CCl)N1N=C(c2ccco2)CC1c1cccs1 (stereo not given) |  |  | 20.6 µM [falling, single point]
COc1ccc(CSc2n[nH]c(C)n2)cc1Br | -7.13% | 2.06 µM [falling, partial curve, poor fit] | 0.164 µM [falling, full curve, poor fit]
Cc1cc(-c2nc(-c3ccc(C(C)(C)C)cc3)no2)no1 | 7.74% |  | 2.06 µM [rising, single point]
CCOC(=O)c1c(C)n(C)c2c(C)cc(O)c(OC(=O)CC)c12 | 7.86% |  | 18.4 µM [rising, single point]
CCN1CCN(c2c(/C=C3\SC(=S)N(Cc4ccco4)C3=O)c(C)c(C#N)c(=O)n2C)CC1 | -30.3% | 32.6 µM [falling, single point] | 2.31 µM [falling, partial curve]
Cc1cc(NC(=O)c2cncc(Br)c2)ccc1NC(=O)c1cc2ccccc2o1 | -64.4% | 5.17 µM [falling, partial curve] | 4.11 µM [falling, full curve]
COc1ccc(C(CNC(=O)CCNC(=O)c2ccccc2Cl)N2CCCC2)cc1 (stereo not given) | -2.76% |  | 0.651 µM [rising, full curve]
COc1ccc(OC)c2c(C)cc(N3CCN(C(=O)c4ccc(F)cc4)CC3)nc12 | 5.37% |  | 6.51 µM [falling, full curve, poor fit]
CN(Cc1ccccc1)C(=O)COc1ccc(C(C)(C)C)cc1 | -36.5% | 20.6 µM [falling, single point] | 6.51 µM [rising, single point]
O=c1[nH]c(C2CCN(S(=O)(=O)c3ccccc3)CC2)nc2c1nnn2Cc1c(F)cccc1Cl | 7.69% |  | 
COc1ccc(-c2cc(=O)oc3cc(OCC(=O)NCc4ccccn4)ccc23)cc1 | 7.44% | 0.291 µM [rising, full curve, poor fit] | 29.1 µM [falling, single point]
O=C(CCc1ccccc1)c1ccc2c(c1)OCCCO2 | 41.5% | 23.1 µM [rising, partial curve, poor fit] | 
COc1ccc(CC(=O)NNc2ncnc3c2cnn3C)cc1OC | -16.9% | 0.103 µM [falling, full curve, poor fit] | 20.6 µM [rising, single point]
CCCCN(CCCC)CC(O)COc1ccccc1Br (stereo not given) | 5.57% |  | 0.82 µM [falling, full curve, poor fit]
Clc1nc2ccccc2cc1/C=N/Nc1nc2ccccc2[nH]1 | -47.4% | 0.116 µM [falling, full curve] | 0.103 µM [falling, full curve, poor fit]
COc1ccc(N2CCN(S(=O)(=O)c3ccc4c(c3)NC(=O)C(C)C(=O)N4)CC2)cc1 (stereo not given) | 2.88% |  | 20.6 µM [falling, single point]

SMILES | cell number change | AC50 [1] | AC50 [2]
N#Cc1ccc(S(=O)(=O)N2CCN(Cc3cccs3)CC2)cc1 | -5.22% | 4.11 µM [falling, single point] | 
CCc1nn2c(NCCOC)cc(C)nc2c1-c1ccc(F)cc1 |  | 0.366 µM [rising, partial curve, poor fit] | 
O=S(=O)(Nc1cc(Cl)ccc1-n1cncn1)c1ccc(F)cc1 | 19.5% |  | 
CC(O)CNCCNCc1c(OCc2ccccc2)ccc2ccccc12 (stereo not given) | 84.9% | 18.4 µM [rising, single point] | 
CCCN1C(=O)C(NC(=O)c2ccncc2)(C(F)(F)F)C2=C1CC(C)(C)CC2=O (stereo not given) | -2.43% |  | 
CCC1CCCCN1CCCNC(=O)Cn1c(=O)c2cccn2c2ccccc21 (stereo not given) |  | 0.82 µM [rising, single point] | 
COc1ccc(C)cc1S(=O)(=O)N(C)CC(=O)NC1CCCCC1 | 23.7% |  | 5.17 µM [rising, full curve]
O=C(N/N=C/c1ccc(F)cc1)c1cccc(NC(=O)c2ccccc2Cl)c1 | 17.1% |  | 
Cc1cc(OCC(=O)NC(C)C)cc(C)c1Br | 21.6% |  | 2.06 µM [rising, single point]
C=CCc1c(C)nc(SCC(=C)C)[nH]c1=O | -13.9% | 0.92 µM [falling, full curve] | 
COc1ccc(CNC(=O)C2CCN(S(=O)(=O)c3cccnc3)CC2)cc1 | -16% |  | 20.6 µM [rising, single point]
O=C(CSc1nnc(-c2ccccn2)n1Cc1ccco1)c1ccc(-c2ccccc2)cc1 | -2.62% |  | 
COc1ccc2c(c1)O[C@@H](c1cccc(C(F)(F)F)c1)[C@H](O)C2=O | -30.8% | 10.3 µM [falling, partial curve] | 18.4 µM [falling, single point]
COc1cc(OC)cc(C(=O)NC(=S)Nc2ccc(Cl)c(C(=O)O)c2)c1 | -23.2% |  | 
COc1ccccc1C(=O)NC(=O)COC(=O)Cc1n[nH]c(=O)c2ccccc12 | 17.8% |  | 
Cc1csc(Sc2ccc(C(=O)OCC(=O)Nc3ccc(OC(F)(F)F)cc3)cc2[N+](=O)[O-])n1 | 9.35% | 0.58 µM [falling, full curve] | 
CC(=O)N(CCCNC(=O)c1ccccc1)C(=O)c1ccccc1 | 9.04% |  | 1.46 µM [falling, partial curve, poor fit]
COc1ccc(C2c3cc(OC)c(OC)cc3CCN2C(=O)c2cccc([N+](=O)[O-])c2)cc1OC (stereo not given) | 18.1% | 1.84 µM [rising, partial curve] | 
COc1ccc(CNC(=O)COC(=O)CC2CCCC2)cc1 |  |  | 0.58 µM [rising, single point]
CCOC(=O)CCC(=O)N1CCOCCN(C(=O)CCC(=O)OCC)CCOCC1 | -11.7% |  | 
